Results are given in words; binding and its absence hold for the method and conditions named. Binding seen in cells or lysates may run through a third protein. A yes stands for co-enrichment or nearness to the bait. Other partners may have been found. No binding means not detected with the bait. One block for each binder: values may come before it.
Target: human proinsulin (human (endogenous in human islets))
Assay: affinity purification with mass spectrometry

B2: ERGIC1 (protein, UniProt Q969X5 1-290)
chain: MPFDFRRFDIYRKVPKDLTQPTYTGAIISICCCLFILFLFLSELTGFITTEVVNELYVDDPDKDSGGKIDVSLNISLPNLHCELVGLDIQDEMGRHEVGHIDNSMKIPLNNGAGCRFEGQFSINKVPGNFHVSTHSATAQPQNPDMTHVIHKLSFGDTLQVQNIHGAFNALGGADRLTSNPLASHDYILKIVPTVYEDKSGKQRYSYQYTVANKEYVAYSHTGRIIPAIWFRYDLSPITVKYTERRQPLYRFITTICAIIGGTFTVAGILDSCIFTASEAWKKIQLGKMH
- binding: binds

B4: ERP44 (protein, UniProt Q9BS26 30-406)
chain: EITSLDTENIDEILNNADVALVNFYADWCRFSQMLHPIFEEASDVIKEEFPNENQVVFARVDCDQHSDIAQRYRISKYPTLKLFRNGMMMKREYRGQRSVKALADYIRQQKSDPIQEIRDLAEITTLDRSKRNIIGYFEQKDSDNYRVFERVANILHDDCAFLSAFGDVSKPERYSGDNIIYKPPGHSAPDMVYLGAMTNFDVTYNWIQDKCVPLVREITFENGEELTEEGLPFLILFHMKEDTESLEIFQNEVARQLISEKGTINFLHADCDKFRHPLLHIQKTPADCPVIAIDSFRHMYVFGDFKDVLIPGKLKQFVFDLHSGKLHREFHHGPDPTDTAPGEQAQDVASSPPESSFQKLAPSEYRYTLLRDRDEL
- binding: binds

B5: Peroxiredoxin-4 (PRDX4), human islets (enzyme, UniProt Q13162 38-271)
chain: WETEERPRTREEECHFYAGGQVYPGEASRVSVADHSLHLSKAKISKPAPYWEGTAVIDGEFKELKLTDYRGKYLVFFFYPLDFTFVCPTEIIAFGDRLEEFRSINTEVVACSVDSQFTHLAWINTPRRQGGLGPIRIPLLSDLTHQISKDYGVYLEDSGHTLRGLFIIDDKGILRQITLNDLPVGRSVDETLRLVQAFQYTDKHGEVCPAGWKPGSETIIPDPAGKLKYFDKLN
- binding: binds

B6: ERDJ5 (protein, UniProt Q8IXB1 33-793)
chain: DQDFYSLLGVSKTASSREIRQAFKKLALKLHPDKNPNNPNAHGDFLKINRAYEVLKDEDLRKKYDKYGEKGLEDNQGGQYESWNYYRYDFGIYDDDPEIITLERREFDAAVNSGELWFVNFYSPGCSHCHDLAPTWRDFAKEVDGLLRIGAVNCGDDRMLCRMKGVNSYPSLFIFRSGMAPVKYHGDRSKESLVSFAMQHVRSTVTELWTGNFVNSIQTAFAAGIGWLITFCSKGGDCLTSQTRLRLSGMLDGLVNVGWMDCATQDNLCKSLDITTSTTAYFPPGATLNNKEKNSILFLNSLDAKEIYLEVIHNLPDFELLSANTLEDRLAHHRWLLFFHFGKNENSNDPELKKLKTLLKNDHIQVGRFDCSSAPDICSNLYVFQPSLAVFKGQGTKEYEIHHGKKILYDILAFAKESVNSHVTTLGPQNFPANDKEPWLVDFFAPWCPPCRALLPELRRASNLLYGQLKFGTLDCTVHEGLCNMYNIQAYPTTVVFNQSNIHEYEGHHSAEQILEFIEDLMNPSVVSLTPTTFNELVTQRKHNEVWMVDFYSPWCHPCQVLMPEWKRMARTLTGLINVGSIDCQQYHSFCAQENVQRYPEIRFFPPKSNKAYHYHSYNGWNRDAYSLRIWGLGFLPQVSTDLTPQTFSEKVLQGKNHWVIDFYAPWCGPCQNFAPEFELLARMIKGKVKAGKVDCQAYAQTCQKAGIRAYPTVKFYFYERAKRNFQEEQINTRDAKAIAALISEKLETLRNQGKRNKDEL
- binding: binds

The next lines start with the values.

- binding: binds
B1: QSOX1, human islets (enzyme, UniProt O00391 30-747)
chain: APRSALYSPSDPLTLLQADTVRGAVLGSRSAWAVEFFASWCGHCIAFAPTWKALAEDVKAWRPALYLAALDCAEETNSAVCRDFNIPGFPTVRFFKAFTKNGSGAVFPVAGADVQTLRERLIDALESHHDTWPPACPPLEPAKLEEIDGFFARNNEEYLALIFEKGGSYLGREVALDLSQHKGVAVRRVLNTEANVVRKFGVTDFPSCYLLFRNGSVSRVPVLMESRSFYTAYLQRLSGLTREAAQTTVAPTTANKIAPTVWKLADRSKIYMADLESALHYILRIEVGRFPVLEGQRLVALKKFVAVLAKYFPGRPLVQNFLHSVNEWLKRQKRNKIPYSFFKTALDDRKEGAVLAKKVNWIGCQGSEPHFRGFPCSLWVLFHFLTVQAARQNVDHSQEAAKAKEVLPAIRGYVHYFFGCRDCASHFEQMAAASMHRVGSPNAAVLWLWSSHNRVNARLAGAPSEDPQFPKVQWPPRELCSACHNERLDVPVWDVEATLNFLKAHFSPSNIILDFPAAGSAARRDVQNVAAAPELAMGALELESRNSTLDPGKPEMMKSPTNTTPHVPAEGPEASRPPKLHPGLRAAPGQEPPEHMAELQRNEQEQPLGQWHLSKRDTGAALLAESRAEKNRLWGPLEVRRVGRSSKQLVDIPEGQLEARAGRGRGQWLQVLGGGFSYLDISLCVGLYSLSFMGLLAMYTYFQAKIRALKGHAGHPAA

- binding: no binding
B3: TMEM24 (protein, UniProt O14523 1-706)
chain: MDPGWGQRDVGWAALLILFAASLLTVFAWLLQYARGLWLARARGDRGPGPALAGEPAGSLRELGVWRSLLRLRATRAGAAEEPGVRGLLASLFAFKSFRENWQRAWVRALNEQACRNGSSIQIAFEEVPQLPPRASISHVTCVDQSEHTMVLRCQLSAEEVRFPVSVTQQSPAAVSMETYHVTLTLPPTQLEVNLEEIPGEGLLISWAFTDRPDLSLTVLPKLQARERGEEQVELSTIEELIKDAIVSTQPAMMVNLRACSAPGGLVPSEKPPMMPQAQPAIPRPNRLFLRQLRASHLGNELEGTEELCCVAELDNPMQQKWTKPARAGSEVEWTEDLALDLGPQSRELTLKVLRSSSCGDTELLGQATLPVGSPSRPLSRRQLCPLTPGPGKALGPAATMAVELHYEEGSPRNLGTPTSSTPRPSITPTKKIELDRTIMPDGTIVTTVTTVQSRPRIDGKLDSPSRSPSKVEVTEKTTTVLSESSGPSNTSHSSSRDSHLSNGLDPVAETAIRQLTEPSGRVAKKTPTKRSTLIISGVSKVPIAQDELALSLGYAASLEASVQDDAGTSGGPSSPPSDPPAMSPGPLDALSSPTSVQEADETTRSDISERPSVDDIESETGSTGALETRSLKDHKVSFLRSGTKLIFRRRPRQKEAGLSQSHDDLSNATATPSVRKKAGSFSRRLIKRFSFKSKPKANGNPSPQL

— publication doi:10.1101/699132 (bioRxiv, 2020)
